Test results taken from patent US7572799B2, “Pyrazolo[4,3-d]pyrimidines as Phosphodiesterase Inhibitors” (Pfizer Inc, priority 2003, dated 2009).
The structures given here were assigned with low confidence; some may be wrong.

What follows are compounds tested against PDE-5 (UniProt O76074) (assay: In vitro PDE inhibitory activity against PDE5 (batch method or scintillation proximity assay)). Conditions: representative compounds.
Format: biochemical, human
`COCCn1nc(C(=O)O)c2nc(N(C)C)nc(Nc3cc(C)ccn3)c21` was tested, and the IC50 was 8.97 nM.
Work on `CCOCCn1nc(C(=O)NS(C)(=O)=O)c2nc(N(C)C(C)C)nc(Nc3cc(C)ncn3)c21` yielded an IC50 of 0.608 nM.
For `CCOCCn1nc(C(=O)O)c2nc(N(C)C(C)C)nc(Nc3ccc(C)cn3)c21`, the IC50 was 7.19 nM.
With `CCN(C)c1nc(Nc2cccc(C)c2)c2c(n1)c(C(=O)O)nn2CCOCC(F)(F)F` the IC50 was 0.414 nM.
